In the supplement of paper PMC10849652:
Some of the results follow.

Amino acid sequences for entries named in this document (tags omitted). A change or cut given only in a name is not applied to a line headed by its entry.
UniProt Q12788: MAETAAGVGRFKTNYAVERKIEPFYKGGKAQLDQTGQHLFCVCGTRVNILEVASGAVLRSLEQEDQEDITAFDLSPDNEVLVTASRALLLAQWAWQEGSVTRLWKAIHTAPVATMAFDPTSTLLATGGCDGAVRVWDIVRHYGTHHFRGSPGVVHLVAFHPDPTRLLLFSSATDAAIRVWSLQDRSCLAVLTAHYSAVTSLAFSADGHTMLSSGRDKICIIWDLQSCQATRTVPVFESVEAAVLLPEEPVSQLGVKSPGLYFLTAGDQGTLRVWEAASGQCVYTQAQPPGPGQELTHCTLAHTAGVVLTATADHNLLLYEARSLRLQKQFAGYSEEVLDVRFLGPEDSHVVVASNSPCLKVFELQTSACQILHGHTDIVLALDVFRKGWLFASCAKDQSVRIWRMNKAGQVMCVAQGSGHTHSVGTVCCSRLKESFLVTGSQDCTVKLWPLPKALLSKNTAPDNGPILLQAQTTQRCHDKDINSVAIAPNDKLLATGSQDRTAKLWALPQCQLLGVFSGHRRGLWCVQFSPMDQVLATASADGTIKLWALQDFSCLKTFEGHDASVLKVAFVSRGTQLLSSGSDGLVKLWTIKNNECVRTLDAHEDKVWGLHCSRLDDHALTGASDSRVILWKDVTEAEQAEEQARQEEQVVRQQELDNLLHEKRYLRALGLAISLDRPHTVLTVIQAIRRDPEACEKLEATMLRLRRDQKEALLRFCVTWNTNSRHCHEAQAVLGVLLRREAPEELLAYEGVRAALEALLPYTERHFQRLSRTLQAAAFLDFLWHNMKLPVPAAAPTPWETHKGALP
UniProt Q9P2M4: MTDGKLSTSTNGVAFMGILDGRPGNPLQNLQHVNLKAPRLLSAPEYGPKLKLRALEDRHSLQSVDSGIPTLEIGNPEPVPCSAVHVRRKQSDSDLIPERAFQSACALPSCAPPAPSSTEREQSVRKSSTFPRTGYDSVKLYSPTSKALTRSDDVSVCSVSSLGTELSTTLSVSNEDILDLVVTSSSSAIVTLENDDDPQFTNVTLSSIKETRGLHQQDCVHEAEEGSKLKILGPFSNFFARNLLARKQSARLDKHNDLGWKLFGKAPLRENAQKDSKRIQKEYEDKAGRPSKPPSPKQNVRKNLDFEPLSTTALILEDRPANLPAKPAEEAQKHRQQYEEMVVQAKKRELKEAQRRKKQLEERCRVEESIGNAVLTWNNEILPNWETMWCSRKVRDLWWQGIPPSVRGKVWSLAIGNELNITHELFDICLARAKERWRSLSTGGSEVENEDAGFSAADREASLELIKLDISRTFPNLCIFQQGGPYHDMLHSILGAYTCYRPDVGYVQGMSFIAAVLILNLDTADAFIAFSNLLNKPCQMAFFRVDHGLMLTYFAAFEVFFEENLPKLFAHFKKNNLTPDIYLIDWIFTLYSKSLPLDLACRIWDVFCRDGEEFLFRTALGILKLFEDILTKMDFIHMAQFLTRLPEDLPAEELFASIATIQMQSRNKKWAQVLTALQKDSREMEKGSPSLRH
UniProt Q96BS2: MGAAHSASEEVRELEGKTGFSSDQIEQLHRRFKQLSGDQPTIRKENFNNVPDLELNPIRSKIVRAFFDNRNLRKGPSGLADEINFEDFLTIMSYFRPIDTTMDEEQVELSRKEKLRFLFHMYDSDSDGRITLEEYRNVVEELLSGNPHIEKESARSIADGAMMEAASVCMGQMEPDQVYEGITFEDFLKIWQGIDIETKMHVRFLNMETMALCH
UniProt Q8NDF8: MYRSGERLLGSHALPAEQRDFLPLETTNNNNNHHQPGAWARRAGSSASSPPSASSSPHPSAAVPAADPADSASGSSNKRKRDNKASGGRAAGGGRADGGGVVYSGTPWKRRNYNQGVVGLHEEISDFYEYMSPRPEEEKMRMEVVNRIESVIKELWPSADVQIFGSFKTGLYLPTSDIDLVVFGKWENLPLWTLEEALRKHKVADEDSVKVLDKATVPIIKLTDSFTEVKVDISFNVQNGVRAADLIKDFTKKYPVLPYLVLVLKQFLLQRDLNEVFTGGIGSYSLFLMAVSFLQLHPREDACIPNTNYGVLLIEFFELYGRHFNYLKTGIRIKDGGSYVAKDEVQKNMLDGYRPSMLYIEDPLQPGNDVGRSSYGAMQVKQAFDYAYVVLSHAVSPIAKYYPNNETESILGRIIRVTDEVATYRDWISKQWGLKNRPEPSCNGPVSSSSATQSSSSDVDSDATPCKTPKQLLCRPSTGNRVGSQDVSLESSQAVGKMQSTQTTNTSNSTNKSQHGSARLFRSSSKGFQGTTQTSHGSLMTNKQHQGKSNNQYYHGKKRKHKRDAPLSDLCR
UniProt Q96MN5: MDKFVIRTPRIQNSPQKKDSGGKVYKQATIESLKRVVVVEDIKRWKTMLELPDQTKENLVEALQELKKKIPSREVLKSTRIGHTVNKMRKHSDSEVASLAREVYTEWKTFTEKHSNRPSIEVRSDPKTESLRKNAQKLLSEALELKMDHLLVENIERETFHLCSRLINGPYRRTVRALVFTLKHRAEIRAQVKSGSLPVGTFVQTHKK
UniProt Q9BYX2: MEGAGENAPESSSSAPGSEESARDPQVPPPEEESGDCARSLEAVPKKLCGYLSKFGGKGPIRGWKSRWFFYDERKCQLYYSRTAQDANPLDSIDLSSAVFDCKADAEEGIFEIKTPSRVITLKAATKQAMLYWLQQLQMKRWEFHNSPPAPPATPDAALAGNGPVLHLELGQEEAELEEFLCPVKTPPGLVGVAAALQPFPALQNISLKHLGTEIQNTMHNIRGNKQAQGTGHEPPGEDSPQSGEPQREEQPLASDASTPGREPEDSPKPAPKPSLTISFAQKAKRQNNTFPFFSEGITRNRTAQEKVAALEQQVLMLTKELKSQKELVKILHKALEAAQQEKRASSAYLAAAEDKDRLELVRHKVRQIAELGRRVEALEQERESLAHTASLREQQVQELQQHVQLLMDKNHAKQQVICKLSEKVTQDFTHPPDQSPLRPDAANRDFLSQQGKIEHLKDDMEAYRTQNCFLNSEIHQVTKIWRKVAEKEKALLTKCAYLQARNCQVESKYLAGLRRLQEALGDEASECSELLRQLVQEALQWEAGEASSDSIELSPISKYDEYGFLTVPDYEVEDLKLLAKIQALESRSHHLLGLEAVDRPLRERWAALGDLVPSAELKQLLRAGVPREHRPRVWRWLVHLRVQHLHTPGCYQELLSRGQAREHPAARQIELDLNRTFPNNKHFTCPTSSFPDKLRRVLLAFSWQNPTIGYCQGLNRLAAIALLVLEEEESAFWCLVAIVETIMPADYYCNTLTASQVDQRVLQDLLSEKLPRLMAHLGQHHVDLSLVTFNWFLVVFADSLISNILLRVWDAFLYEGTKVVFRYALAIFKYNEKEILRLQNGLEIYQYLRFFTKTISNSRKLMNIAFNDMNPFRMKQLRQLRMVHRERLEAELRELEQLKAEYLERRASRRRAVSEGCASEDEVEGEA
UniProt Q9Y4C2: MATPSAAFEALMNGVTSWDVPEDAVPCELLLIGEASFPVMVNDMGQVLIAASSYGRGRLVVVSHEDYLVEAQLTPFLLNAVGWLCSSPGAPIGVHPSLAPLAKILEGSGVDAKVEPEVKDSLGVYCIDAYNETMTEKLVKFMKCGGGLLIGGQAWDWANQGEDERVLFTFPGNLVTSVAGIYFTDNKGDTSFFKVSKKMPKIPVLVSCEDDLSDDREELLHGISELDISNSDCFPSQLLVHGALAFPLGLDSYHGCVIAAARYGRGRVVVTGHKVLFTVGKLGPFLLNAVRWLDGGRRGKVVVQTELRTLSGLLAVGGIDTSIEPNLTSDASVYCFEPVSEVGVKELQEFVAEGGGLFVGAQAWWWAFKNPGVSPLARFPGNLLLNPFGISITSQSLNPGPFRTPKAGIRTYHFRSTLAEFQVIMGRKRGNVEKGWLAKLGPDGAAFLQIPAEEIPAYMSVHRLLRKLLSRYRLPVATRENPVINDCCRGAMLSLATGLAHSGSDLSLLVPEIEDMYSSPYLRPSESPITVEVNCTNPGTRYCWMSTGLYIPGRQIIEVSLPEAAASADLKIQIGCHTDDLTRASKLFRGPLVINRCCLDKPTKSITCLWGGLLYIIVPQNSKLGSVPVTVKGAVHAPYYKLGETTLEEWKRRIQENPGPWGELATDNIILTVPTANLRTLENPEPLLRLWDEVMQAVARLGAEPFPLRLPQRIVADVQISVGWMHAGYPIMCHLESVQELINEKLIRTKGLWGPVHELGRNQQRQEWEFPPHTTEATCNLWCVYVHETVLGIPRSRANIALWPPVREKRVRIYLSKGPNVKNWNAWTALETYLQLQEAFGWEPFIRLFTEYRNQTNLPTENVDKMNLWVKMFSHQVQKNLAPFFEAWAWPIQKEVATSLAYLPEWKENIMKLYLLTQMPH
UniProt Q86VP1, whole entry, looked up: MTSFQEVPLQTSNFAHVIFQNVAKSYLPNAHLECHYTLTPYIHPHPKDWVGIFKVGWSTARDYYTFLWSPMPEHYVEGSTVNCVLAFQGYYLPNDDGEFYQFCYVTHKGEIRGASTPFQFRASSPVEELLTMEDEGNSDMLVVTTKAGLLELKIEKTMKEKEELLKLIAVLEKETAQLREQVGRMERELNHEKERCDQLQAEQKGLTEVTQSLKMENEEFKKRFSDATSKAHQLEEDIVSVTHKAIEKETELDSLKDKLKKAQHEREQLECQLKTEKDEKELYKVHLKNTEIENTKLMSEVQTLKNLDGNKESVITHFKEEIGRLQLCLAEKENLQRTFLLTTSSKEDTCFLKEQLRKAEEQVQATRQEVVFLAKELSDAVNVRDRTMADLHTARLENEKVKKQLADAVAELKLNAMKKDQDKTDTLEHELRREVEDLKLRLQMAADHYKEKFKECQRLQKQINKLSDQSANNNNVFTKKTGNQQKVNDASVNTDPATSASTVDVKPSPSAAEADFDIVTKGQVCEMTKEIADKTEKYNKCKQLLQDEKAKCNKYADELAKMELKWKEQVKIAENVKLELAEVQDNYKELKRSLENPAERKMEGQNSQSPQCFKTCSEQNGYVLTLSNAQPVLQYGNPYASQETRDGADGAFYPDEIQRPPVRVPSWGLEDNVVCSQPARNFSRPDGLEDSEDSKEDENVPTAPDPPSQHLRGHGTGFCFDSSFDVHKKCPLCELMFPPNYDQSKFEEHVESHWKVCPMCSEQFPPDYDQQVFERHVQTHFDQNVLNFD
UniProt Q5JUR7: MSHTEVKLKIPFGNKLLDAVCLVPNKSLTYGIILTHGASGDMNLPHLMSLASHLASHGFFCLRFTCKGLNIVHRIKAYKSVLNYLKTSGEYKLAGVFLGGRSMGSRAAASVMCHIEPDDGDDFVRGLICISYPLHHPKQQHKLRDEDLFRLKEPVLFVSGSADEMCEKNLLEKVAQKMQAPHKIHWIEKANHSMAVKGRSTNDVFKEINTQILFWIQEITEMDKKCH
UniProt Q9NZ01: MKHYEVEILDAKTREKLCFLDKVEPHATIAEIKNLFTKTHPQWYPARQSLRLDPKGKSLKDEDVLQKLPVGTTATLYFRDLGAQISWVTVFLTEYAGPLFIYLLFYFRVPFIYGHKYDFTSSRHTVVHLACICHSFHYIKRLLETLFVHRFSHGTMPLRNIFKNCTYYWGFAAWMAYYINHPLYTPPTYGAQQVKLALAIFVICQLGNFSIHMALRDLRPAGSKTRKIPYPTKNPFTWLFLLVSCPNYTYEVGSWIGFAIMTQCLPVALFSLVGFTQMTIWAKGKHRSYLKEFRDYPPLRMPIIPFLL
UniProt Q9BT92: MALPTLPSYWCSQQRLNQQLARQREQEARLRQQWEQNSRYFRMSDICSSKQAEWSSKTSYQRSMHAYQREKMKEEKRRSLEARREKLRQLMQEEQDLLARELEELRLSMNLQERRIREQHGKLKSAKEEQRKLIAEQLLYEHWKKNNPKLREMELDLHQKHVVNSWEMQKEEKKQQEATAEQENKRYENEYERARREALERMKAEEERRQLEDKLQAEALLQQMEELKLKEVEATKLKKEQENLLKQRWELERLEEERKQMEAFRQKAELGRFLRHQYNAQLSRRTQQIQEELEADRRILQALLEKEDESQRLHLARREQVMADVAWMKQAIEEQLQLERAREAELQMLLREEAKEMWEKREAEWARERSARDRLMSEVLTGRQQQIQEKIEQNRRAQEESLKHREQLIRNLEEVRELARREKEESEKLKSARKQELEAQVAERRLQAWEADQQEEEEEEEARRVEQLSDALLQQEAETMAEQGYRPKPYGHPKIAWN
UniProt Q9UGI8: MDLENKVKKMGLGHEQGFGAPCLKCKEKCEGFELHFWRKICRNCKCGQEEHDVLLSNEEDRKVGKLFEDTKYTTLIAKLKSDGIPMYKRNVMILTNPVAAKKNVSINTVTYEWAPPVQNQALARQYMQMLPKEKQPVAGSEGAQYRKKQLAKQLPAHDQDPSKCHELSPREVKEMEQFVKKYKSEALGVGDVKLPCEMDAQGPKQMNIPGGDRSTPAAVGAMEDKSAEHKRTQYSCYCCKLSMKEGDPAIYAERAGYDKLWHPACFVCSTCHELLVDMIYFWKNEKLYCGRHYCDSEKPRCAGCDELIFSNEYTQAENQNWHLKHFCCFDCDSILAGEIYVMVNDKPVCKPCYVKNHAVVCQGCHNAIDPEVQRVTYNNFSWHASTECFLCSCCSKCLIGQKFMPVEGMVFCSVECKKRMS

Experiments:
Test in all cases: log2 fold change, soluble protein after heating vs DMSO (PISA); higher = thermal stabilisation; K562 lysate, 10 uM; active = over 0.2 and 3.5 SD of the protein, either way, in both replicates (recomputed)
[1] = compound: C1=CC=C(C=C1)[C@H](COC2=CC3=C(C=C2)NC(=O)N3)NC(=O)C4=CC=CN(C4=O)CC5=CC(=C(C=C5)F)F
Summary of the method: (§1)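 Dounce homogenisation of K562 pellets in PBS pH 7.4 with 1 mM MgCl2 produced a crude extract, used at 1 mg/mL protein. Exposure to 10 μM compound lasted 30 min, and aliquots were then heated for 3 min across 48°C-58°C, pooled and brought to 0.5% NP-40 at 4°C. The supernatant after 21,000xg for 90 min was quantified by TMTpro 16plex LC-MS/MS with channel sums equalised. Duplicate values are given as log-two fold change in thermal stability relative to solvent controls.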

[2] = compound: CC1=C(SC2=C1C(=N[C@H](C3=NN=C(N32)C)CC(=O)N)C4=CC=C(C=C4)Cl)C
Summary of the method: as §1

[3] = compound: CC1=C2C(=CC=C1)N=C(N(C2=O)C3=CC=CC=C3C)CN4C=NC5=C(N=CN=C54)N
Summary of the method: as §1

[4] = compound: Cc1sc2c(c1C)C(c1ccc(Cl)cc1)=N[C@@H](CC(=O)OC(C)(C)C)c1nnc(C)n1-2
Summary of the method: as §1

[5] = compound: c1ccc([C@@H]2C[C@H]2NC2CCNCC2)cc1
Summary of the method: as §1

Measured: log2 fold change

TCEAL1 isoform 2 (UniProt Q15170)
inactive: [1] 0.309 | [2] -0.12 | [3] 0.05

TBKBP1 (UniProt A7MCY6)
inactive: [1] -0.02 | [2] -0.07

TBL3 (UniProt Q12788)
inactive: [1] 0.024 | [2] 0.003 | [3] -0.014 | [4] -0.014 | [5] 0.014

TBCA (UniProt O75347)
inactive: [1] 0.021 | [2] -0.03 | [3] -0.007 | [4] 0.068 | [5] -0.018

TBC1D4 (UniProt O60343)
inactive: [1] -0.025 | [2] 0.01 | [3] 0.018 | [4] -0.022 | [5] -0.027

TFG (UniProt Q92734)
inactive: [1] 0.025 | [2] 0.008 | [3] -0.015 | [4] 0.031 | [5] -0.025

TBC1D14 (UniProt Q9P2M4)
inactive: [1] 0.079 | [2] -0.124 | [3] 0.079 | [4] -0.139 | [5] 0.045

TEX10 (UniProt Q9NXF1)
inactive: [1] -0.046 | [2] 0.066 | [3] 0.045 | [4] 0.001 | [5] 0.061

TBC1D7 (UniProt Q9P0N9)
inactive: [1] -0.01 | [2] -0.002 | [3] 0.042 | [4] 0.051 | [5] -0.084

TBC1D17 (UniProt Q9HA65)
inactive: [1] -0.002 | [2] 0.012 | [3] 0.014 | [4] -0.091 | [5] 0.032

TESC (UniProt Q96BS2)
inactive: [1] 0.034 | [2] -0.131 | [3] -0.001 | [4] 0.004 | [5] 0.016

TEAD4 (UniProt Q15561)
inactive: [1] -0.076 | [2] 0.133

TEX2 isoform 2 (UniProt Q8IWB9)
inactive: [1] -0.042 | [2] 0.043 | [3] -0.037 | [4] -0.025 | [5] 0.146

TAOK1 (UniProt Q7L7X3)
inactive: [1] 0.057 | [2] 0.021 | [3] 0.014 | [4] -0.031 | [5] 0.106

TDG (UniProt Q13569)
inactive: [1] -0.005 | [2] 0.062 | [3] 0.079 | [4] -0.042 | [5] -0.097

TARDBP (UniProt Q13148)
inactive: [1] -0.094 | [2] -0.012 | [3] 0.067 | [4] -0.145 | [5] -0.041

TBRG4 (UniProt Q969Z0)
inactive: [1] -0.071 | [2] 0.024 | [3] 0.018 | [4] 0.052 | [5] 0.094

TBC1D2B (UniProt Q9UPU7)
inactive: [1] -0.024 | [2] 0.139 | [3] -0.048 | [4] -0.065 | [5] -0.008

TARSL2 (UniProt A2RTX5)
inactive: [1] -0.009 | [2] 0 | [3] 0.041 | [4] -0.017 | [5] 0.01

TENT4B isoform 5 (UniProt Q8NDF8)
inactive: [1] 0.008 | [2] 0.129

TCEANC2 (UniProt Q96MN5)
inactive: [1] -0.041 | [2] -0.022 | [3] 0.081 | [4] -0.086

TAPBP isoform 3 (UniProt O15533)
inactive: [1] -0.299 | [2] -0.174 | [3] 0.069 | [4] -0.043

TBL1XR1 (UniProt Q9BZK7)
inactive: [1] 0.016 | [2] 0.02 | [3] 0.02 | [4] -0.033 | [5] -0.051

TBC1D2 (UniProt Q9BYX2)
inactive: [1] 0.01 | [2] -0.041 | [3] 0.02 | [4] 0.029 | [5] 0.01

TBC1D24 (UniProt Q9ULP9)
inactive: [1] 0.025 | [2] 0.046 | [3] 0.023 | [4] 0.01 | [5] 0.033

TFE3 (UniProt P19532)
inactive: [1] -0.069 | [2] -0.021 | [3] 0.067 | [4] -0.051 | [5] -0.034

TDRD7 (UniProt Q8NHU6)
inactive: [1] 0.038 | [2] 0.054 | [3] 0.005 | [4] -0.021 | [5] 0.038

TBC1D20 isoform 3 (UniProt Q96BZ9)
inactive: [1] -0.08 | [2] -0.07 | [3] 0.005 | [4] -0.007 | [5] 0.015

TATDN1 isoform 2 (UniProt Q6P1N9)
inactive: [1] -0.09 | [2] 0.072 | [3] 0.128

TDRD3 isoform 3 (UniProt Q9H7E2)
inactive: [1] 0.082 | [2] 0.037 | [3] 0.027 | [4] 0.065 | [5] -0.01

TELO2 (UniProt Q9Y4R8)
inactive: [1] -0.073 | [2] -0.012 | [3] -0.019 | [4] 0.056 | [5] 0.025

TAF8 isoform 2 (UniProt Q7Z7C8)
inactive: [1] 0.002 | [2] 0 | [3] 0.043 | [4] -0.028 | [5] -0.036

TFDP2 (UniProt Q14188)
inactive: [1] -0.101 | [2] -0.179 | [3] 0.143 | [4] -0.117

TDP1 (UniProt Q9NUW8)
inactive: [1] -0.008 | [2] 0.018 | [3] 0 | [4] -0.066 | [5] 0.024

TBC1D23 (UniProt Q9NUY8)
inactive: [1] 0.007 | [2] 0.01 | [3] -0.017 | [4] 0.016 | [5] -0.024

TFDP1 (UniProt Q14186)
inactive: [1] -0.05 | [2] 0.106 | [3] -0.039 | [4] 0.104 | [5] 0.089

TCAF1 (UniProt Q9Y4C2)
inactive: [1] -0.026 | [2] 0.012 | [3] 0.05 | [4] 0.001 | [5] 0.05

TAX1BP1 isoform 2 (UniProt Q86VP1)
inactive: [1] -0.142 | [2] -0.026

TET1 (UniProt Q8NFU7)
inactive: [1] -0.038 | [2] 0.072 | [3] 0.002 | [4] -0.148 | [5] -0.454

TEX30 (UniProt Q5JUR7)
inactive: [1] -0.074 | [2] 0.066 | [3] -0.006 | [4] -0.1 | [5] -0.038

TECR (UniProt Q9NZ01)
inactive: [1] -0.131 | [2] 0.083 | [3] 0.015 | [4] 0.017 | [5] 0.046

TCP11L1 (UniProt Q9NUJ3)
inactive: [1] -0.023 | [2] -0.031 | [3] -0.02 | [4] -0.021 | [5] -0.095

TCF25 (UniProt Q9BQ70)
inactive: [1] -0.061 | [2] -0.017 | [3] -0.082 | [4] 0.089 | [5] 0.027

TBC1D5 isoform 2 (UniProt Q92609)
inactive: [1] -0.025 | [2] 0.024 | [3] 0.025 | [4] 0.005 | [5] -0.038

TCHP (UniProt Q9BT92)
inactive: [1] 0.151 | [2] -0.032 | [3] -0.051 | [4] 0.015 | [5] -0.007

TBC1D13 (UniProt Q9NVG8)
inactive: [1] 0.016 | [2] -0.018 | [3] -0.008 | [4] -0.045 | [5] -0.044

TATDN1 (UniProt Q6P1N9)
inactive: [1] 0.059 | [2] -0.013 | [3] -0.01 | [4] -0.029 | [5] 0.012

TERF2IP (UniProt Q9NYB0)
inactive: [1] 0.023 | [2] -0.006 | [3] -0.077 | [4] -0.03 | [5] 0.116

TBPL1 (UniProt P62380)
inactive: [1] 0.055 | [2] 0.061 | [3] 0.008 | [4] 0.041 | [5] 0.028

TES (UniProt Q9UGI8)
inactive: [1] 0.024 | [2] 0.014 | [3] -0.002 | [4] -0.017 | [5] -0.082

TBC1D22A (UniProt Q8WUA7)
inactive: [1] 0.007 | [2] 0.007 | [3] 0.012 | [4] 0.02 | [5] 0.017

TAOK2 (UniProt Q9UL54)
inactive: [1] -0.033 | [2] 0.118 | [3] -0.001 | [4] 0.242 | [5] -0.105

TANGO2 isoform 4 (UniProt Q6ICL3)
inactive: [1] 0.078 | [2] 0 | [3] -0.022 | [4] -0.017 | [5] 0.058

TBK1 (UniProt Q9UHD2)
inactive: [1] -0.012 | [2] 0.021 | [3] -0.031 | [4] -0.003 | [5] -0.023

TF (UniProt P02787)
inactive: [1] -0.067 | [2] -0.009 | [3] -0.029 | [4] -0.13 | [5] 0.001
